Experimental data: PubChem BioAssay AID652259 (Drosophila RNAi Screening Center, 2013)
The deposit covers about 22,000 reagents; shown is an unselected part of those with a known target gene and a result. Over the whole deposit, 233 (1.1%) got an active call. 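Light values are raw, unnormalised plate reads; the ratio scores behind the reporter calls were not deposited.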 Entries without a mark were called inactive. Reagent sequences are not shown. The record does not give: the amount of reagent, the time to read-out, the dose of the treatment.

Assay: 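Knock-downs that push a Wingless-driven reporter up or down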 (primary screen)
System: Drosophila clone 8 imaginal disc epithelial cells
Reagent: long dsRNA against Drosophila genes
Conditions: pathway stimulated by co-transfected Wingless expression plasmid
Read-out: 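Dual luciferase reads per well after Wingless plasmid stimulation: reporter firefly light and Renilla control light; activity is firefly divided by Renilla, a ratio not deposited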
Scale: firefly reporter light: higher = more Wg reporter light, before normalisation; Renilla control light: higher = more transfected or surviving cells
Active means: 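Strong candidates differ from their plate mean by at least two out of four per-plate statistical tests; weak candidates meet just one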
Meaning of the calls: active = candidate regulator (raises or lowers reporter); inactive = not a candidate

| gene knocked down | dsRNA | firefly reporter light, replicate 1 | firefly reporter light, replicate 2 | Renilla control light, replicate 1 | Renilla control light, replicate 2 |
| --- | --- | --- | --- | --- | --- |
| CG14629 (GeneID 31055) | DRSC18476 | 16612 | – | 12116 | – |
| Hip14 (GeneID 39747) | DRSC10570 | 6977 | – | 2618 | – |
| Ing3 (GeneID 32853) | DRSC20002 | 2957 | 9563 | 981 | 3344 |
| CG18063 (GeneID 34943) | DRSC01968 | 2458 | 4818 | 800 | 2280 |
| ato (GeneID 40975) | DRSC16904 | 13602 | – | 3570 | – |
| Tsp5D (GeneID 31540) | DRSC18380 | 23624 | – | 11720 | – |
| CG6421 (GeneID 46813) | DRSC07420 | 4410 | – | 2184 | – |
| GCS1 (GeneID 32073) | DRSC19744 | 1241 | 8388 | 832 | 2672 |
| wuc (GeneID 36401) | DRSC06152 | 4224 | – | 1553 | – |
| Cnep1r1 (GeneID 3355167) | DRSC20620 | 26338 | – | 1488 | – |
| eIF4H2 (GeneID 43645) | DRSC14582 | 3444 | 6823 | 1280 | 2381 |
| CG14606 (GeneID 40866) | DRSC12550 | 16298 | – | 3734 | – |
| Stat92E (GeneID 42428) | DRSC16870 | 2396 | 4712 | 965 | 1301 |
| CG9368 (GeneID 40135) | DRSC11067 | 6406 | – | 2135 | – |
| CG8206 (GeneID 32516) | DRSC20093 | 1865 | 3320 | 540 | 1430 |
| Cln7 (GeneID 38813) | DRSC11005 | 6761 | – | 2256 | – |
| Arp6 (GeneID 32514) | DRSC19326 | 2630 | 8185 | 1098 | 2162 |
| CG13654 (GeneID 43028) | DRSC14654 | 16210 | – | 13778 | – |
| betaNACtes4 (GeneID 32389) | DRSC19801 | 17947 | – | 8971 | – |
| CG7943 (GeneID 43574) | DRSC16351 | 3312 | 5961 | 1184 | 2027 |
| CG18371 (GeneID 36556) | DRSC06733 | 7280 | – | 2432 | – |
| alpha-Est8 (GeneID 40899) | DRSC12620 | 13159 | – | 2928 | – |
| CG9636 (GeneID 40967) | DRSC16529 | 8037 | – | 2759 | – |
| kar (GeneID 45883) | DRSC14496 | 7026 | – | 2320 | – |

Copied from the list.
For “firefly reporter light, replicate 1”, GCS1 (GeneID 32073) [DRSC19744] is entered as 1241
Entry of Tsp5D (GeneID 31540) [DRSC18380] in “firefly reporter light, replicate 1”: 23624
Entry of Arp6 (GeneID 32514) [DRSC19326] under “firefly reporter light, replicate 1”: 2630
Result of kar (GeneID 45883) [DRSC14496] under “firefly reporter light, replicate 1”: 7026
Under “Renilla control light, replicate 1”, alpha-Est8 (GeneID 40899) [DRSC12620] shows 2928
For “firefly reporter light, replicate 1”, CG6421 (GeneID 46813) [DRSC07420] reads 4410

Further results:
| gene knocked down | dsRNA | firefly reporter light, replicate 1 | firefly reporter light, replicate 2 | Renilla control light, replicate 1 | Renilla control light, replicate 2 |
| --- | --- | --- | --- | --- | --- |
| CG15035 (GeneID 31673) | DRSC17967 | 14045 | – | 8577 | – |
| E(spl)m7-HLH (GeneID 43160) | DRSC16696 | 17232 | – | 15482 | – |
| CG32425 (GeneID 40273) | DRSC11739 | 11226 | – | 2769 | – |
| CG32425 (GeneID 40273) | DRSC11764 | 5340 | – | 2219 | – |
| Nup153 (GeneID 32630) | DRSC19904 | 1306 | 4257 | 630 | 587 |
| bma (GeneID 5740442) | DRSC09896 | 5963 | – | 3789 | – |
| bma (GeneID 5740442) | DRSC10164 | 6457 | – | 4176 | – |
| Cyp4e1 (GeneID 44632) | DRSC07370 | 2784 | 5955 | 624 | 2042 |
| CG18808 (GeneID 59169) | DRSC08539 | 1160 | 7432 | 940 | 3218 |
| CG13559 (GeneID 37720) | DRSC04197 | 2678 | 6776 | 861 | 2211 |
| spdi (GeneID 31004) | DRSC18487 | 1581 | 3585 | 839 | 1464 |
| spdi (GeneID 31004) | DRSC18488 | 13277 | – | 12433 | – |
| Bre1 (GeneID 38652) | DRSC09742 | 14369 | – | 2610 | – |
| CG43386 (GeneID 31929) | DRSC17980 | 18928 | – | 8928 | – |
| CG30020 (GeneID 36156) | DRSC06252 | 2482 | – | 779 | – |
| CG30020 (GeneID 36156) | DRSC06730 | 2333 | 6005 | 1160 | 3704 |
| CG33062 (GeneID 318840) | DRSC22195 | 8.24e5 | 8.61e5 | 2.24e5 | 2.37e5 |
| CG12645 (GeneID 31947) | DRSC17851 | 24848 | – | 9224 | – |
| CG13375 (GeneID 30976) | DRSC18621 | 17072 | – | 11394 | – |
| Polr3E (GeneID 40325) | DRSC11880 | 9747 | – | 4412 | – |
| hfp (GeneID 38173) | DRSC08731 | 7264 | – | 2806 | – |
| hfp (GeneID 38173) | DRSC08732 | 6067 | – | 3034 | – |
| hfp (GeneID 38173) | DRSC22408 | 7.57e5 | 7.76e5 | 2.99e5 | 2.58e5 |
| Aladin (GeneID 31881) | DRSC18121 | 5549 | 7048 | 1088 | 3052 |
| rho (GeneID 38168) | DRSC08734 | 7906 | – | 2880 | – |
| 5-HT2B (GeneID 41017) | DRSC16360 | 10982 | – | 3437 | – |
| 5-HT2B (GeneID 41017) | DRSC16362 | 10080 | – | 3098 | – |
| grnd (GeneID 35103) | DRSC02020 | 2880 | 5776 | 901 | 2851 |
| CG42680 (GeneID 10178899) | DRSC01399 | 17851 | – | 9324 | – |
| tinc (GeneID 42148) | DRSC14798 | 12849 | – | 2804 | – |
| tinc (GeneID 42148) | DRSC14799 | 16195 | – | 3580 | – |
| tinc (GeneID 42148) | DRSC16308 | 16395 | – | 2576 | – |
| tinc (GeneID 42148) | DRSC16309 | 13466 | – | 2643 | – |
| CG13983 (GeneID 33875) | DRSC02315 | 1851 | 8360 | 624 | 2148 |
| esc (GeneID 34595) | DRSC03529 | 6957 | – | 1685 | – |
| CG14275 (GeneID 34144) | DRSC02379 | 2396 | 7715 | 1056 | 3313 |
| CG5846 (GeneID 34326) | DRSC02904 | 8817 | – | 1202 | – |
| CG3982 (GeneID 39084) | DRSC10394 | 7944 | – | 628 | – |
| Not1 (GeneID 5740252) | DRSC06787 | 3371 | 11884 | 576 | 2988 |
| Not1 (GeneID 5740252) | DRSC06794 | 8788 | – | 1673 | – |
| Ir68b (GeneID 39378) | DRSC10251 | 7296 | – | 2170 | – |
| CG34302 (GeneID 5740537) | DRSC12751 | 2115 | – | 1056 | – |
| mRpS9 (GeneID 40932) | DRSC12645 | 3253 | – | 1508 | – |
| mRpS9 (GeneID 40932) | DRSC15456 | 17805 | – | 4347 | – |
| CG13216 (GeneID 36181) | DRSC06338 | 4651 | – | 2392 | – |
| CG15561 (GeneID 43692) | DRSC15100 | 11202 | – | 4534 | – |
| Cyp4d2 (GeneID 31192) | DRSC18458 | 3968 | 5580 | 1225 | 1709 |
| Atf6 (GeneID 35480) | DRSC04743 | 24663 | 7.19e5 | 13161 | 3.29e5 |
| Atf6 (GeneID 35480) | DRSC04889 | 2489 | 6809 | 492 | 2973 |
